Assay results taken from PubChem BioAssay AID330 (DTP/NCI, 2004).
The list does not hold the whole screen: it is rich in T/C values a quarter to a half above the control, in often repeated tests (any T/C) and in doses without a T/C. Further doses and runs are listed elsewhere. T/C is the treated group as % of the vehicle group. Some entries give survivors of the animals treated and no T/C: the source files T/C as zero there, which appears to mark a toxic dose or a test without result, not a measured value. Some survivor counts are full or nearly so, which does not show that the dose was tolerated: survival well below the control is almost never listed, so the zero probably covers shortened survival too. Counts of survivors are from the toxicity check (mostly the fifth day) where no day follows; animals may have died later. Schedules are NCI's codes, read here as Q, the interval in days (D) or hours (H), X, the number of doses. Some doses were run more than once; the values are given in rising order. Where survival is the endpoint, the PubChem record calls one and a half times the control and up active, and a quarter to a half above the control has no call in these data; cut-offs in other NCI protocols can differ.

Tested on: P388 leukemia ip, CD2F1 mice, survival T/C
Experiment: NCI In Vivo Anticancer Drug Screen. Data for tumor model P388 Leukemia (intraperitoneal) in CD2F1 (CDF1) mice
Settings: T/C endpoint: median survival time, higher T/C = longer survival
[1] = dose: 240.0 mg/kg/injection, schedule: Q01DX005 (ip), vehicle: saline with Tween-80
[2] = dose: 60.0 mg/kg/injection, schedule: Q01DX005 (ip), vehicle: saline with Tween-80
[3] = dose: 120.0 mg/kg/injection, schedule: Q01DX005 (ip), vehicle: saline with Tween-80
[4] = dose: 50.0 mg/kg/injection, schedule: Q01DX009 (ip), vehicle: saline
[5] = dose: 200.0 mg/kg/injection, schedule: Q01DX009 (ip), vehicle: saline
[6] = dose: 25.0 mg/kg/injection, schedule: Q01DX005 (ip), vehicle: saline with Tween-80

Cc1c(NC(=O)Nc2cc([N+](=O)[O-])ccc2Cl)c(=O)n(-c2ccccc2)n1C
survivor count [1]: 6 of 6

CCc1cc(Cc2cc(CC)cc(C(C)(C)C)c2O)c(O)c(C(C)(C)C)c1
survivor count (dose: 100.0 mg/kg/injection, schedule: Q01DX009 (ip), vehicle: Klucel (hydroxypropylcellulose) (HPC)): 6 of 6

O=C1c2cc3c(cc2C(=O)c2cc(-c4ccccc4)c(-c4ccccc4)cc21)OCO3
survivor count [2]: 6 of 6 | survivor count [3]: 6 of 6

Cc1nc(C(=O)N=C(N)N)c(N)nc1-c1ccccc1
survivor count [2]: 5 of 6 | survivor count [3]: 3 of 6 | survivor count [1]: 0 of 6

CCCN(CCNc1cc(OC)cc2cccnc12)C(C)C
survivor count (dose: 100.0 mg/kg/injection, schedule: Q01DX005 (ip), vehicle: saline): 3 of 5 | survivor count (dose: 200.0 mg/kg/injection, schedule: Q01DX005 (ip), vehicle: saline): 0 of 5

COc1ccc(C[n+]2ccc3c([N+](=O)[O-])cccc3c2)cc1
T/C (dose: 60.0 mg/kg/injection, schedule: Q01DX005 (ip), vehicle: saline + Tween-80 + alcohol): 134 and 138 % of control | survivor count (dose: 120.0 mg/kg/injection, schedule: Q01DX005 (ip), vehicle: saline + Tween-80 + alcohol): 0 of 6 | survivor count (dose: 240.0 mg/kg/injection, schedule: Q01DX005 (ip), vehicle: saline + Tween-80 + alcohol): 0 of 6

CN1CCN(C(=O)N2c3ccccc3Sc3ccccc32)CC1
T/C [4]: 127 % of control | survivor count (dose: 100.0 mg/kg/injection, schedule: Q01DX009 (ip), vehicle: saline): 2 of 6 | survivor count [5]: 0 of 6

CS(=O)(=O)OCCOS(C)(=O)=O
T/C (dose: 200.0 mg/kg/injection, schedule: Q01DX009 (ip), vehicle: Klucel (hydroxypropylcellulose) (HPC)): 133 % of control | T/C [5]: 133 % of control | T/C (dose: 400.0 mg/kg/injection, schedule: Q01DX009 (ip), vehicle: Klucel (hydroxypropylcellulose) (HPC)): 143 % of control

NNC(=O)CC(N)C(=O)O (stereo not given)
T/C [5]: 137 % of control | survivor count (dose: 400.0 mg/kg/injection, schedule: Q01DX009 (ip), vehicle: saline with Tween-80): 6 of 6

CCP(CC)(c1ccccc1)=c1c(=O)c(Cl)c(Cl)c(=O)c1=O
survivor count (dose: 50.0 mg/kg/injection, schedule: Q01DX005 (ip), vehicle: Klucel (hydroxypropylcellulose) (HPC)): 1 of 6 | survivor count (dose: 100.0 mg/kg/injection, schedule: Q01DX005 (ip), vehicle: Klucel (hydroxypropylcellulose) (HPC)): 0 of 6 | survivor count (dose: 200.0 mg/kg/injection, schedule: Q01DX005 (ip), vehicle: Klucel (hydroxypropylcellulose) (HPC)): 0 of 6

CN(C)c1ccc(C2(c3ccccc3)NNC(=O)c3ccccc32)cc1 (stereo not given)
survivor count (dose: 100.0 mg/kg/injection, schedule: Q01DX005 (ip), vehicle: saline with Tween-80): 6 of 6

N#CC#Cc1cccc(C#CC#N)c1
survivor count (dose: 25.0 mg/kg/injection, schedule: Q01DX001 (ip), vehicle: saline with Tween-80): 1 of 6 and 2 of 6 | survivor count (dose: 50.0 mg/kg/injection, schedule: Q01DX001 (ip), vehicle: saline with Tween-80): 0 of 6 | survivor count (dose: 100.0 mg/kg/injection, schedule: Q01DX001 (ip), vehicle: saline with Tween-80): 0 of 6 | survivor count (dose: 200.0 mg/kg/injection, schedule: Q01DX001 (ip), vehicle: saline with Tween-80): 0 of 6 | survivor count (dose: 400.0 mg/kg/injection, schedule: Q01DX001 (ip), vehicle: saline with Tween-80): 0 of 6

NC(CCC(=O)NC(CSCNC(=O)Nc1ccc(Cl)cc1)C(=O)NCC(=O)O)C(=O)O (stereo not given)
survivor count (dose: 240.0 mg/kg/injection, schedule: Q01DX005 (ip), vehicle: saline): 5 of 6

Cc1ccc(SCC#CC#CCS(=O)c2ccc(C)cc2)cc1 (stereo not given)
survivor count (dose: 200.0 mg/kg/injection, schedule: Q01DX005 (ip), vehicle: saline with Tween-80): 4 of 6

COc1ccc(CCC#N)cc1OC
survivor count (dose: 400.0 mg/kg/injection, schedule: Q01DX009 (ip), vehicle: other): 3 of 6

CCCCCCCCSP(SCCCCCCCC)SCCCCCCCC
survivor count [4]: 3 of 6 and 6 of 6

CCCC(=O)Oc1c(OC)cc(O)c2c(=O)c(O)c(-c3ccc(OC)cc3)oc12
survivor count (dose: 28.0 mg/kg/injection, schedule: Q01DX005 (ip), vehicle: Klucel (hydroxypropylcellulose) (HPC)): 6 of 6

O=Cc1ccc(NCCCN2CCN(CCCNc3ccc(C=O)c4sc5ccccc5c(=O)c34)CC2)c2c(=O)c3ccccc3sc12
survivor count [6]: 6 of 6

COc1c2occc2c(N=Cc2ccc([N+](=O)[O-])cc2)c2ccc(=O)oc12
survivor count (dose: 3.0 mg/kg/injection, schedule: Q01DX005 (ip), vehicle: saline with Tween-80): 6 of 6 | survivor count (dose: 6.0 mg/kg/injection, schedule: Q01DX005 (ip), vehicle: saline with Tween-80): 6 of 6 | survivor count (dose: 12.5 mg/kg/injection, schedule: Q01DX005 (ip), vehicle: saline with Tween-80): 6 of 6 | survivor count [6]: 6 of 6 | survivor count (dose: 50.0 mg/kg/injection, schedule: Q01DX005 (ip), vehicle: saline with Tween-80): 6 of 6
